Protein sequences, listed by entry. Tags and fused reporters are not part of them.
UniProt Q9H6Z9: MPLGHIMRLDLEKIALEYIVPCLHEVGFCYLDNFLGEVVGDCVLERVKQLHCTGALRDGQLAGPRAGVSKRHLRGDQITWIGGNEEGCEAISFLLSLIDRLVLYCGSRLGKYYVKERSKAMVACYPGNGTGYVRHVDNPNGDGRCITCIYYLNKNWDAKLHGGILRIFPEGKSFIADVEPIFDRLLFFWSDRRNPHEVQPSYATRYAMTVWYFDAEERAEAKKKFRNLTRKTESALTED

According to PMC6088137:

Biological target: V5-tagged PHD3 (UniProt Q9H6Z9)
Experiment: affinity purification with mass spectrometry; HEK293T transfected with V5-tagged hydroxylase, 2 mM DMOG or DMSO for 4 hr; anti-V5 agarose for 2 hr; label-free quantification

binding: binds
Substance: endogenous p53 (HEK293T) (from UniProt P04637 1-393)

Results are given in words; binding and its absence hold for the method and conditions named. Binding seen in cells or lysates may run through a third protein. These calls come from enrichment with a bait or labelling near it, and not all partners need be listed.
